PubChem BioAssay AID1224830, NIAID, 2016

Purpose: 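Genes whose knock-down alters the TNF-alpha reporter response to LPS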 (primary screen)
System: human THP-1 monocytic leukaemia cells, TNF dual-luciferase reporter clone, PMA-differentiated to macrophage-like cells
Knock-down reagent: siRNA pool against human genes, 50 nM
Timing: LPS for 4 h, given about 3 days after siRNA transfection
Challenge: bacterial LPS (TLR4 ligand), 10 ng/ml
Read-out: 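Ratio of firefly to renilla light, scaled to the plate median and expressed as a robust z-score per replicate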
Scale: TNF reporter robust z-score: higher = stronger TNF reporter response to LPS
Active means: 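a well is active when its z-score exceeds 2.8 or falls below -1.5; control wells carry no call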
The deposit covers about 18,000 reagents; below is a part drawn at random. About 2,900 of them (16%) were called active. 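Calls are made per well; low scores hint the gene aids the LPS response, high scores that it dampens it.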 Repeated entries: four replicate wells of each siRNA pool. Reagent sequences are not shown.

Gene | TNF reporter robust z-score | outcome
THAP1 (THAP domain containing 1) | – | inactive
THAP1 (THAP domain containing 1) | -0.45 | inactive
THAP1 (THAP domain containing 1) | -0.03 | inactive
THAP1 (THAP domain containing 1) | -0.25 | inactive
THAP1 (THAP domain containing 1) | -0.63 | inactive
TRIM75 (tripartite motif containing 75) | 0.35 | inactive
TRIM75 (tripartite motif containing 75) | 0.71 | inactive
TRIM75 (tripartite motif containing 75) | 0.2 | inactive
TRIM75 (tripartite motif containing 75) | 1.01 | inactive
TAF6 (TATA-box binding protein associated factor 6) | 0.33 | inactive
TAF6 (TATA-box binding protein associated factor 6) | -0.1 | inactive
TAF6 (TATA-box binding protein associated factor 6) | 0.13 | inactive
TAF6 (TATA-box binding protein associated factor 6) | -0.12 | inactive
MTMR8 (myotubularin related protein 8) | -0.29 | inactive
MTMR8 (myotubularin related protein 8) | -0.9 | inactive
MTMR8 (myotubularin related protein 8) | -0.76 | inactive
MTMR8 (myotubularin related protein 8) | -0.01 | inactive
F5 (coagulation factor V) | -0.84 | inactive
F5 (coagulation factor V) | -0.19 | inactive
F5 (coagulation factor V) | 0.88 | inactive
F5 (coagulation factor V) | -0.81 | inactive
PROSER1 (proline and serine rich 1) | 0.11 | inactive
PROSER1 (proline and serine rich 1) | 0.85 | inactive
PROSER1 (proline and serine rich 1) | 1.37 | inactive
PROSER1 (proline and serine rich 1) | 1.68 | inactive
CAMK2D (calcium/calmodulin dependent protein kinase II delta) | 5.64 | active
CAMK2D (calcium/calmodulin dependent protein kinase II delta) | 2.65 | inactive
CAMK2D (calcium/calmodulin dependent protein kinase II delta) | -0.24 | inactive
CAMK2D (calcium/calmodulin dependent protein kinase II delta) | 5.22 | active
SPANXN3 (SPANX family member N3) | -0.83 | inactive
SPANXN3 (SPANX family member N3) | -0.49 | inactive
SPANXN3 (SPANX family member N3) | 0.47 | inactive
SPANXN3 (SPANX family member N3) | 1.27 | inactive
NFATC2IP (nuclear factor of activated T cells 2 interacting protein) | -1.3 | inactive
NFATC2IP (nuclear factor of activated T cells 2 interacting protein) | -1.25 | inactive
NFATC2IP (nuclear factor of activated T cells 2 interacting protein) | -0.53 | inactive
NFATC2IP (nuclear factor of activated T cells 2 interacting protein) | -0.23 | inactive
KSR2 (kinase suppressor of ras 2) | -1.57 | active
KSR2 (kinase suppressor of ras 2) | -1.51 | active
KSR2 (kinase suppressor of ras 2) | -1.49 | inactive
KSR2 (kinase suppressor of ras 2) | -1.04 | inactive
MPL (MPL proto-oncogene, thrombopoietin receptor) | 1.45 | inactive
MPL (MPL proto-oncogene, thrombopoietin receptor) | 3.21 | active
MPL (MPL proto-oncogene, thrombopoietin receptor) | 2.58 | inactive
MPL (MPL proto-oncogene, thrombopoietin receptor) | 2.79 | inactive
PVR (PVR cell adhesion molecule) | 1.93 | inactive
PVR (PVR cell adhesion molecule) | 2.7 | inactive
PVR (PVR cell adhesion molecule) | 3.33 | active
PVR (PVR cell adhesion molecule) | 2.3 | inactive
FANCB (FA complementation group B) | 0.19 | inactive
FANCB (FA complementation group B) | 0.72 | inactive
FANCB (FA complementation group B) | 0.33 | inactive
FANCB (FA complementation group B) | 0.22 | inactive
TMEM184A (transmembrane protein 184A) | 0.29 | inactive
TMEM184A (transmembrane protein 184A) | 1.36 | inactive
TMEM184A (transmembrane protein 184A) | 1.2 | inactive
TMEM184A (transmembrane protein 184A) | -0.32 | inactive
ZXDA (zinc finger X-linked duplicated A) | 0.96 | inactive
ZXDA (zinc finger X-linked duplicated A) | 0.78 | inactive
ZXDA (zinc finger X-linked duplicated A) | 0.39 | inactive
ZXDA (zinc finger X-linked duplicated A) | 1.76 | inactive
MISO1 (mitochondrial inner membrane subdomain organizer 1) | -0.46 | inactive
MISO1 (mitochondrial inner membrane subdomain organizer 1) | 0.87 | inactive
MISO1 (mitochondrial inner membrane subdomain organizer 1) | -0.99 | inactive
MISO1 (mitochondrial inner membrane subdomain organizer 1) | 0.49 | inactive
GPR135 (G protein-coupled receptor 135) | 0.17 | inactive
GPR135 (G protein-coupled receptor 135) | 0.5 | inactive
GPR135 (G protein-coupled receptor 135) | 0.56 | inactive
GPR135 (G protein-coupled receptor 135) | 1.12 | inactive
VKORC1L1 (vitamin K epoxide reductase complex subunit 1L1) | 1.85 | inactive
VKORC1L1 (vitamin K epoxide reductase complex subunit 1L1) | 0.48 | inactive
VKORC1L1 (vitamin K epoxide reductase complex subunit 1L1) | 1.69 | inactive
VKORC1L1 (vitamin K epoxide reductase complex subunit 1L1) | 1.53 | inactive
GATA3 (GATA binding protein 3) | -1.07 | inactive
GATA3 (GATA binding protein 3) | -1.09 | inactive
GATA3 (GATA binding protein 3) | -2.08 | active
GATA3 (GATA binding protein 3) | -1.77 | active

Entries above whose target name starts with N or n:
Gene | TNF reporter robust z-score | outcome
NFATC2IP (nuclear factor of activated T cells 2 interacting protein) | -1.3 | inactive
NFATC2IP (nuclear factor of activated T cells 2 interacting protein) | -1.25 | inactive
NFATC2IP (nuclear factor of activated T cells 2 interacting protein) | -0.53 | inactive
NFATC2IP (nuclear factor of activated T cells 2 interacting protein) | -0.23 | inactive
